# System: S. venezuelae cell extracts
# Assay: c-di-GMP extraction and LC-MS/MS quantification in cell extracts
# Design: species or system Streptomyces venezuelae
smiles,measurement,setting,value
"Nc1nc2c(ncn2[C@@H]2O[C@@H]3COP(=O)(O)O[C@H]4[C@@H](O)[C@H](n5cnc6c(=O)[nH]c(N)nc65)O[C@@H]4COP(=O)(O)O[C@H]3[C@H]2O)c(=O)[nH]1 [c-di-GMP, bis-(3′−5′)-cyclic diguanosine monophosphate]","c-di-GMP level in cells, maximum",during spore formation,68.0 ± 11.5 pmol/mg protein
same,c-di-GMP level in cells,"transition to sporulation, after 14 h incubation",7.2 ± 3.9 pmol/mg protein
same,c-di-GMP level in cells,"vegetative phase, after 8 h of growth in liquid MYM",36.1 ± 5.2 pmol c-di-GMP/mg protein

# Reference: publication PMC9530166, “Allosteric regulation of glycogen breakdown by the second messenger cyclic di-GMP” (Nature Communications, 2022)
